Measured values as given in patent US20170326199A1, “USE OF CASPASE-2 INHIBITORS TO TREAT AND PREVENT THE METABOLIC SYNDROME” (Duke University, priority 2015, published 2017).
At least one structure is not confirmed: it was looked up by name or label, or the drawing left a doubt.

System: 3T3-L1 cells differentiated in adipocytes
Assay: Palmitate-induced lipoapoptosis (caspase 3/7 activity, ApoTox-Glo Triplex Assay) in 3T3-L1 adipocytes
Assay type: cell-based
Details: palmitate 1 mM, 48 hours, FIG. 4G
Experimental: FIG. 4G. […] Left panel: apoptosis (caspase 3/7 activity) in adipocytes treated with Palmitate 1 mM, 48 hour±caspase-2 inhibitor, VDVAD-FMK 20 uM.
3T3-L1 cells were differentiated in adipocytes as previously described (Zebisch et al., 2012), and differentiation confirmed with Oil red staining. Adipocytes were treated with palmitate 1 mM with or without caspase-2 inhibitor Z-VDVAD-FMK (R&D Systems), 20 uM, for 48 hours. Apoptosis was measured using ApoTox-Glo Triplex Assay (Promega).

Compound: CCCCCCCCCCCCCCCC(=O)O [palmitate]
- induction of lipoapoptosis in adipocytes in cell culture: induced lipoapoptosis
